Results reported in patent publication US9962360B2, “Compositions and methods for enhancing hair growth, promoting skin regeneration, and wound healing” (The Hospital for Sick Children, priority 2014, dated 2018).

System: SKPs
Experiment: Microarray and GO enrichment analysis of SKPs acutely treated for 24 hours
Settings: SKPs treated for 24 hours

| Compound | number of differentially expressed genes, control versus treated [genes] |
| --- | --- |
| CCCCC[C@H](O)/C=C/[C@H]1[C@H](O)CC(=O)[C@@H]1CCCCCCC(=O)O [Alp, alprostadil] | 457 |
| trimebutine maleate [TM] | 545 |
